Reference: US20250002954A1, “Novel Compound, Use Thereof, and Method for Producing Same, and Compound-Containing Composition, Method for Producing 4-Trehalosamine, and Microorganism” (Microbial Chemistry Research Foundation, priority 2021, published 2025)
Some compounds share one wording; it may come from a single statement.

Experiments:
[1] = Sweetness test by professional panelists; conditions: for sweetness score, Average: 50 mg/100 μL aqueous solution, 10 μL licked, twelve professional panelists, water alone 0, sweetest 10, blind test
[2] = tested on: human ovarian cancer cells OVK18; test: Evaluation of protein extraction efficiency (BCA protein concentration, SDS-PAGE); conditions: OVK18 cells in TBS, 1 hour at 4° C., test samples 0.005% to 1%
[3] = tested on: membrane proteins (EGFR, Na+/K+-ATP ase, TRPV6) of human ovarian cancer cells OVK18; test: Determination of membrane protein extraction efficiency by western blotting; conditions: test sample 0.05% or 0.5%

Compound: N[C@H]1[C@H](O)[C@@H](O)[C@@H](O[C@H]2O[C@H](CO)[C@@H](O)[C@H](O)[C@H]2O)O[C@@H]1CO [4-trehalosamine]
- sweetness score, Average [1]: 7.04
- taste ([1]; sweetness test): clear sweetness, with no unpleasant flavor or odor

Compound: CCCCCCCCCCCCO[C@@H]1O[C@H](CO)[C@@H](O[C@H]2O[C@H](CO)[C@@H](O)[C@H](O)[C@H]2O)[C@H](O)[C@H]1O [DDM, n-dodecyl-β-D-maltoside, reference compound]
- protein extraction efficiency [2]: high extraction efficiency

Compound: CCCCCCCCCCCN[C@@H]1C(CO)O[C@H](O[C@H]2OC(CO)[C@@H](O)C(O)C2O)C(O)C1O (stereo partly shown) [IMCTA-C11]
- membrane protein extraction efficiency [3]: high efficiency of membrane protein extraction

Compound: CCCCCCCCCCCCN[C@@H]1C(CO)O[C@H](O[C@H]2OC(CO)[C@@H](O)C(O)C2O)C(O)C1O (stereo partly shown) [IMCTA-C12]
- membrane protein extraction efficiency [3]: high efficiency of membrane protein extraction

Compound: CCCCCCCCCCCCCN[C@@H]1C(CO)O[C@H](O[C@H]2OC(CO)[C@@H](O)C(O)C2O)C(O)C1O (stereo partly shown) [IMCTA-C13]
- membrane protein extraction efficiency [3]: high efficiency of membrane protein extraction

Compound: CCCCCCCCCCCCCCN[C@@H]1C(CO)O[C@H](O[C@H]2OC(CO)[C@@H](O)C(O)C2O)C(O)C1O (stereo partly shown) [IMCTA-C14]
- membrane protein extraction efficiency [3]: high efficiency of membrane protein extraction

Compound: OC[C@H]1O[C@@](CO)(O[C@H]2O[C@H](CO)[C@@H](O)[C@H](O)[C@H]2O)[C@@H](O)[C@@H]1O [sucrose]
- sweetness score, Average [1]: 9.83

Compound: OC[C@H]1O[C@H](O[C@H]2O[C@H](CO)[C@@H](O)[C@H](O)[C@H]2O)[C@H](O)[C@@H](O)[C@@H]1O [trehalose, reference compound]
- sweetness score, Average [1]: 5.5

Compound: Triton X-100
- protein extraction efficiency [2]: high extraction efficiency
